Measurements published in the supplement of paper PMC12819154, “High-throughput peptide-centric local stability assay extends protein–ligand identification to membrane proteins, tissues and bacteria” (Nature Structural & Molecular Biology, 2025).
Some of the results follow. Most values lie at the level of the controls, where differences are scatter.

The chains behind the UniProt entries cited, without tags or fusion partners. Where a name states a change or a piece, a line headed by the entry shows the natural chain unless it says otherwise.
UniProt P08590, whole entry: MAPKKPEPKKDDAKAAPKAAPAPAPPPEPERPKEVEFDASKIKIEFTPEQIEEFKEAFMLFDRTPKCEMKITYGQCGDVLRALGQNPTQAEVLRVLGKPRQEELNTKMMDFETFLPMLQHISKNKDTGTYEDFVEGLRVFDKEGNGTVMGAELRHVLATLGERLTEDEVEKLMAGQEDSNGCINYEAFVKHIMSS
UniProt P0DJ93: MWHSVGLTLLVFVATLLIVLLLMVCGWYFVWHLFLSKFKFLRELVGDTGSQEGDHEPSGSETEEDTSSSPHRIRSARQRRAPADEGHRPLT
UniProt P07199: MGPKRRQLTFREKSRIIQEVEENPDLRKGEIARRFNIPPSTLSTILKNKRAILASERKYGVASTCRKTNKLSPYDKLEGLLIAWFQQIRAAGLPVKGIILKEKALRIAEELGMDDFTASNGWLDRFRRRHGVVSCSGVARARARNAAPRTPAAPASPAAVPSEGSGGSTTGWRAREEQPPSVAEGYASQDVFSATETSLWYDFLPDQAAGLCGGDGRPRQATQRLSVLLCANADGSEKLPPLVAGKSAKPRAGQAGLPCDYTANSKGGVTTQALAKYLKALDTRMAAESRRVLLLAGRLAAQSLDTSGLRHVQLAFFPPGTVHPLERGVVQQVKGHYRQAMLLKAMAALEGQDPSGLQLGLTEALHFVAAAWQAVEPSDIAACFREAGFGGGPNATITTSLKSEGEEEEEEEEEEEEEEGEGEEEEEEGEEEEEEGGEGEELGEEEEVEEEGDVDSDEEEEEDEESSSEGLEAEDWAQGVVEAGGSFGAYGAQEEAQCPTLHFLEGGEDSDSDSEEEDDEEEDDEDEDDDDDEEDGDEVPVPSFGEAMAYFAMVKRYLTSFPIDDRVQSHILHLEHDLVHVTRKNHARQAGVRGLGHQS
UniProt P06493, whole entry, looked up: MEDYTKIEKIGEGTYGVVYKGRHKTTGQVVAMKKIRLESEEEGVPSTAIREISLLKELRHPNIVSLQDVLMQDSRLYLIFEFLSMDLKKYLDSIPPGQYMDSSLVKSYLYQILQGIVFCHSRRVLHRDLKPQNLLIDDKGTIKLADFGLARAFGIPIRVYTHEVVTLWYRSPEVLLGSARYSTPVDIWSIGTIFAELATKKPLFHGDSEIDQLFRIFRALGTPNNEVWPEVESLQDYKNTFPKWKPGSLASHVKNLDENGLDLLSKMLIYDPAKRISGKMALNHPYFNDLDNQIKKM
UniProt P02008: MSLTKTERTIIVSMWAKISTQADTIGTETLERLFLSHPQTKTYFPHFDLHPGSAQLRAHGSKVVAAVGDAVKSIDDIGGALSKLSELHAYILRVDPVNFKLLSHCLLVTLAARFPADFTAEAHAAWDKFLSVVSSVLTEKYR
UniProt P06730, whole entry: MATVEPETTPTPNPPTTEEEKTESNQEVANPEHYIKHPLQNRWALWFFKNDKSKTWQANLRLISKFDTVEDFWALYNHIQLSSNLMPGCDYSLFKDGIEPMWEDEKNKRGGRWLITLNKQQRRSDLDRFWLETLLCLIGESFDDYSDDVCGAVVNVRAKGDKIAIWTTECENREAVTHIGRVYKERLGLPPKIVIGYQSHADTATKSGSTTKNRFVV
UniProt P10606, whole entry: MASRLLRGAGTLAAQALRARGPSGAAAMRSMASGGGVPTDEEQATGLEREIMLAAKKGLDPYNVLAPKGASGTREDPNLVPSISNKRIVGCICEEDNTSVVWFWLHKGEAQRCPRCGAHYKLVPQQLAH
UniProt P06733, whole entry: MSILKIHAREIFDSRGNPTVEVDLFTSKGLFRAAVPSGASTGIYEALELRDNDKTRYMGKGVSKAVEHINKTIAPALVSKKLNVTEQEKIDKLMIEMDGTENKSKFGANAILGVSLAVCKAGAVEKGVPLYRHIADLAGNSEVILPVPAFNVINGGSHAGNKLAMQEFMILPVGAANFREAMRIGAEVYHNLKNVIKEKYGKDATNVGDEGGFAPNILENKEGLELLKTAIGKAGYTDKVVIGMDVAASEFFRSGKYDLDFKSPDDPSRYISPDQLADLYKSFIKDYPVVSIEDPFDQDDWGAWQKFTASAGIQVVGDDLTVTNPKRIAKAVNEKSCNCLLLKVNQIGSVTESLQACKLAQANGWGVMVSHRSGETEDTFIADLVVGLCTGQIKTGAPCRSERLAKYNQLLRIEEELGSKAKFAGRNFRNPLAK

What follows are targets tested with Cc1nc(Nc2ncc(C(=O)Nc3c(C)cccc3Cl)s2)cc(N2CCN(CCO)CC2)n1 [dasatinib] (assay: log2 fold change of tryptic peptide abundance, ligand vs vehicle (limited proteolysis) (log2 ratio); higher = more trypsin-susceptible (destabilized)). Conditions: ligand concentration: 5 uM; sample: K562 cleared lysate.

| Target | log2 fold change |
| --- | --- |
| MYL3 (peptide sequence: ITYGQCGDVLR, peptide start residue: 73) (UniProt P08590) | 0.0478 |
| SMIM13 (peptide sequence: APADEGHRPLT, peptide start residue: 81) (UniProt P0DJ93) | 0.498 |
| CENPB (peptide sequence: HGVVSCSGVAR, peptide start residue: 130) (UniProt P07199) | 0.165 |
| UniProt P06493 (peptide sequence: VYTHEVVTLWYR, peptide start residue: 159) | 0.119 |
| HBZ (peptide sequence: AHGSKVVAAVGDAVK, peptide start residue: 58) (UniProt P02008) | -0.206 |
| EIF4E (peptide sequence: SKTWQANLR, peptide start residue: 53) (UniProt P06730) | -0.268 |
| COX5B (peptide sequence: KGLDPYNVLAPK, peptide start residue: 57) (UniProt P10606) | 0.227 |
| ENO1 (peptide sequence: TIAPALVSK, peptide start residue: 72) (UniProt P06733) | 0.0836 |

A second format for part of the listing above.
Target,log2 fold change
"HBZ (peptide sequence: AHGSKVVAAVGDAVK, peptide start residue: 58) (UniProt P02008)",-0.206
"COX5B (peptide sequence: KGLDPYNVLAPK, peptide start residue: 57) (UniProt P10606)",0.227
